The text below walks through data of PMC11187912.

Protein sequences, listed by entry. Tags and fused reporters are not part of them. Residues count along the entry.
UniProt Q9NZQ7, residues 19-290: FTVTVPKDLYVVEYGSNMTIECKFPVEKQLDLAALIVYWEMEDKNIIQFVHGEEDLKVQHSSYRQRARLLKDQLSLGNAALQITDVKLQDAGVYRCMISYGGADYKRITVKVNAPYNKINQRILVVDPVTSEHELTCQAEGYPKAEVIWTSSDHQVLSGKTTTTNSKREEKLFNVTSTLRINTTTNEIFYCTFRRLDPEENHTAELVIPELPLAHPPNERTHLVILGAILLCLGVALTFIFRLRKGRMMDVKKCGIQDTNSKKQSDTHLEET

These are yes or no findings as the source states them, for the method shown. Binding seen in cells or lysates may run through a third protein. Some results given as binding are weak or reduced against the parent protein; the word gives no strength.

The target in one assay is endogenous PD‐L1 (UniProt Q9NZQ7). Nature of the assay: co-IP; Co‐IP of USP22 and endogenous PD‐L1, immunoblot; which protein was precipitated, cells and buffer not stated.
A further assay has as its target FLAG‐PD‐L1 (UniProt Q9NZQ7). Nature of the assay: co-IP; FLAG‐PD‐L1 immunoprecipitated, bound USP22 detected by immunoblot; cells and buffer not stated.

B1: ubiquitin‐specific peptidase 22 (USP22) (enzyme, UniProt Q9UPT9 1-525)
chain: MVSRPEPEGEAMDAELAVAPPGCSHLGSFKVDNWKQNLRAIYQCFVWSGTAEARKRKAKSCICHVCGVHLNRLHSCLYCVFFGCFTKKHIHEHAKAKRHNLAIDLMYGGIYCFLCQDYIYDKDMEIIAKEEQRKAWKMQGVGEKFSTWEPTKRELELLKHNPKRRKITSNCTIGLRGLINLGNTCFMNCIVQALTHTPLLRDFFLSDRHRCEMQSPSSCLVCEMSSLFQEFYSGHRSPHIPYKLLHLVWTHARHLAGYEQQDAHEFLIAALDVLHRHCKGDDNGKKANNPNHCNCIIDQIFTGGLQSDVTCQVCHGVSTTIDPFWDISLDLPGSSTPFWPLSPGSEGNVVNGESHVSGTTTLTDCLRRFTRPEHLGSSAKIKCSGCHSYQESTKQLTMKKLPIVACFHLKRFEHSAKLRRKITTYVSFPLELDMTPFMASSKESRMNGQYQQPTDSLNNDNKYSLFAVVNHQGTLESGHYTSFIRQHKDQWFKCDDAIITKASIKDVLDSEGYLLFYHKQFLEYE
Regarding B1, the binding result in the assay with endogenous PD‐L1 and in the assay with FLAG‐PD‐L1 was “binds” each time.
